# Assay results taken from US20230077155A1, “TETRAHYDROISOQUINOLINE COMPOUND AS POTASSIUM CHANNEL MODULATOR AND PREPARATION AND APPLICATION THEREOF” (Shanghai Zhimeng Biopharma, Inc., priority 2020, published 2023).
# Some entries share one result that the patent states for a list of compounds.
# Assay: Brain-blood ratio study in mice after single oral administration
# Format: in vivo, male ICR mice
# Conditions: tert-butyl changed into group of drawing 50
# Description: Brain-blood ratio study: 6 healthy male ICR mice (body weight range 18-22 g) were taken and divided into 2 groups and 3 mice/group. After fasting overnight, the compound to be tested (10 mg/kg) was administrated orally respectively. Blood was taken through cardiac puncture at time points 2 and 4 hours, at least 0.5 mL of whole blood was collected to EDTA-K2 anticoagulant tube. Plasma was centrifuged (6000 rpm, 8 minutes, 4° C.) within half an hour and frozen at −20° C. for later use. At the same time, the brain tissue was collected, rinsed with normal saline, then sucked to dryness with absorbent paper, weighed, and frozen at −20° C. for later use.
# The cerebral blood ratio is very important to nerve drugs, and it can be seen from Table 3 that the compounds of the present invention have excellent cerebral blood ratio, which will bring better drug efficacy and excellent safety. By comparing the cerebral blood ratios of compound A, compound 1, compound B and compound J, it can be seen that after the tert-butyl of compound A or compound B has been changed into […]
structure (smiles),measurement,value
Cc1cc2c(c(C)c1NC(=O)CC1(C)CC1)CCN(c1ccc(F)cc1F)C2 [Compound J],Increase of cerebral blood ratio of mice versus the tert-butyl analogue (compound A or compound B),more than 2 times
